# Test results: the supplement of paper PMC4604168 (melanoma cell lines)
# This is one part of the list. Many values rest on one well or one pass, so single values are uncertain.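 Cells were imaged in 1,536-well plates, and nuclei stained with an antibody against cleaved PARP were counted against all DNA-stained nuclei to give the apoptosis fraction. Screening doses were chosen to leave most cells alive, and resting and induced cleaved-PARP levels differ strongly between cell lines.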
# Test system: UACC62
# Test: cleaved PARP positive nuclei fraction relative to DMSO control; melanoma cells; higher = more apoptosis
# Conditions: library dose: low library concentration; 72 h
row,SMILES,cleaved PARP positive nuclei fraction
1,"CO[C@H]1C[C@@H]2CC[C@@H](C)[C@@](O)(O2)C(=O)C(=O)N2CCCC[C@H]2C(=O)O[C@H]([C@H](C)C[C@@H]2CC[C@@H](OCCO)[C@H](OC)C2)CC(=O)[C@H](C)/C=C(\C)[C@@H](O)[C@@H](OC)C(=O)[C@H](C)C[C@H](C)/C=C/C=C/C=C/1C [everolimus] + Cn1c(Nc2ccc(C(F)(F)F)cc2)nc2cc(Oc3ccnc(-c4ncc(C(F)(F)F)[nH]4)c3)ccc21 [CHIR265] (first compound 0.02 µM, partner dose 0.08 µM)",707%
2,"CO[C@H]1C[C@@H]2CC[C@@H](C)[C@@](O)(O2)C(=O)C(=O)N2CCCC[C@H]2C(=O)O[C@H]([C@H](C)C[C@@H]2CC[C@@H](OCCO)[C@H](OC)C2)CC(=O)[C@H](C)/C=C(\C)[C@@H](O)[C@@H](OC)C(=O)[C@H](C)C[C@H](C)/C=C/C=C/C=C/1C [everolimus] + COc1cc2ncnc(Nc3ccc(Oc4ccccc4)cc3)c2cc1OC [SrcI1] (first compound 0.02 µM, partner dose 2 µM)",240%
3,"CO[C@H]1C[C@@H]2CC[C@@H](C)[C@@](O)(O2)C(=O)C(=O)N2CCCC[C@H]2C(=O)O[C@H]([C@H](C)C[C@@H]2CC[C@@H](OCCO)[C@H](OC)C2)CC(=O)[C@H](C)/C=C(\C)[C@@H](O)[C@@H](OC)C(=O)[C@H](C)C[C@H](C)/C=C/C=C/C=C/1C [everolimus] + CN(NC(=O)CC(=O)NN(C)C(=S)c1ccccc1)C(=S)c1ccccc1 [STA4783] (first compound 0.02 µM, partner dose 0.006 µM)",246%
